Results deposited as PubChem BioAssay AID1259405 (NCATS, 2018)
Test: 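Mouse-designed siRNAs used to find CHO productivity engineering targets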 (primary screen). Cells: Chinese hamster CHO-K1 ovary cells with stable secreted eGFP expression. Knock-down reagent: single siRNA against mouse genes, 0.8 pmol siRNA per well (2 µl of 400 nM stock). Timing: 3 days. Read-out: 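Percent of the per-plate non-targeting control median for intracellular GFP per well by laser scanning cytometry and for cell viability by ATP luminescence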. Reading the numbers: GFP, % of control: higher = more GFP per well, higher productivity; viability (ATP), % of control: higher = more viable cells (more ATP). Call rule: 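Called active when intracellular GFP, relative to negative control, is at or above 120%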.
This is a random part of about 50,000 reagents tested. About 4,000 of them (8%) count as active. 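Mouse siRNA library applied to hamster cells; one well for each siRNA.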 Entries without a mark were called inactive. The numbers tell different reagents against one gene apart.

gene knocked down	siRNA no.	GFP, % of control	viability (ATP), % of control
Fn1	1	69.8	74.5
Fn1	2	119	87.8
Fn1	3	76	59.8
Or1o4	1	57.1	81.3
Or1o4	2	83.6	85.9
Or1o4	3	74.5	47.1
Gigyf1	1	97.5	78.1
Gigyf1	2	80.7	69.9
Gigyf1	3	86.3	71.8
Rnf25	1	104	88.6
Rnf25	2	33.3	33.5
Rnf25	3	62.8	50.6
Rph3a	1	20.2	25.6
Rph3a	2	64.4	41.8
Rph3a	3	56.6	64.9
Ostf1	1	83.4	61.9
Ostf1	2	66.8	62.9
Ostf1	3	59.6	124
Elovl2	1	92.6	97.4
Elovl2	2	68.7	72.6
Elovl2	3	108	81.2
Gpr171	1	114	68.1
Gpr171	2	63.3	47.5
Gpr171	3	96.5	71.8

7 entries from above, arranged by “viability (ATP), % of control”, highest first:
gene knocked down	siRNA no.	GFP, % of control	viability (ATP), % of control
Rnf25	1	104	88.6
Or1o4	2	83.6	85.9
Or1o4	1	57.1	81.3
Gigyf1	1	97.5	78.1
Gigyf1	3	86.3	71.8
Gigyf1	2	80.7	69.9
Or1o4	3	74.5	47.1

More results follow.
gene knocked down	siRNA no.	GFP, % of control	viability (ATP), % of control
Ephb3	1	58.1	69.7
Acyp2	1	59.8	82.8
Acyp2	2	47.5	38.9
Acyp2	3	73.7	67.3
Slc16a12	1	80.8	71.7
Slc16a12	2	37.7	49.9
Slc16a12	3	102	84
Or10a3n	1	53.1	62.3
Or10a3n	2	72.6	104
Or10a3n	3	8.25	12.3
Pan2	1	86.7	99.3
Pan2	2	113	86
Pan2	3	87.9	80
Cfap263	1	63.1	43
Cfap263	2	71.9	80.3
Cfap263	3	123 (active)	124
Vmn1r203	1	37.9	56.9
Vmn1r203	2	61.5	96.6
Vmn1r203	3	70.1	47.1
Alkbh7	1	87.1	99.9
Alkbh7	2	105	75.2
Alkbh7	3	77.1	90.1
Ptpru	1	80.2	78.3
Ptpru	2	60.8	71.4
Ptpru	3	111	94.2
Capn8	1	68.3	72.1
Capn8	2	70.1	72.8
Capn8	3	85.5	69.3
Trappc11	1	44.1	81.3
Trappc11	2	84.4	71.6
Trappc11	3	78.3	91.4
Rab32	1	110	103
Rab32	2	82.9	99
Rab32	3	61.8	94.8
